The results in this text go back to publication PMC10038992.

Results are given in words; binding and its absence hold for the method and conditions named. In cells and extracts the contact can be indirect. Some results given as binding are weak or reduced against the parent protein; the word gives no strength. Tags and fused reporters may be left off the sequences shown.

The target in one assay is Cullin-3-myc (UniProt Q13618). In words: co-IP; both partners as tagged constructs transfected in HEK293 cells; lysis in 1% NP-40, 150 mM NaCl, 50 mM Tris pH 8.0, 10% glycerol, 1 mM EDTA; antibody overnight at 4 °C, Dynabeads; immunoblot; KCTD7–Cullin-3 also after knock-down of calpain subunits (not affected). On the technique in general: A western blot detects proteins with antibodies after separation by electrophoresis.

Another assay concerns the target T1, KCTD7-GFP (human) (UniProt Q96MP8).
T1 sequence: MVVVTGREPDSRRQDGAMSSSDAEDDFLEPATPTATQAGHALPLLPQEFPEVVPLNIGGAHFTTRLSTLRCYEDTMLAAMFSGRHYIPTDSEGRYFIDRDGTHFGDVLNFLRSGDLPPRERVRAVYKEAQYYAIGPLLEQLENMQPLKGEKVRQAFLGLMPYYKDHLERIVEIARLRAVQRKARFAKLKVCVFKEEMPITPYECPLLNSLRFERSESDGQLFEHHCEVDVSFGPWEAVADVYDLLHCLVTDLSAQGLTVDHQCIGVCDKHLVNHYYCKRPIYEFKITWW
The description is as above.

Assay [1] addresses T2, KCTD7-Flag (potassium channel tetramerization domain containing 7, Flag-tagged, wild type) (human) (UniProt Q96MP8).
T2 sequence: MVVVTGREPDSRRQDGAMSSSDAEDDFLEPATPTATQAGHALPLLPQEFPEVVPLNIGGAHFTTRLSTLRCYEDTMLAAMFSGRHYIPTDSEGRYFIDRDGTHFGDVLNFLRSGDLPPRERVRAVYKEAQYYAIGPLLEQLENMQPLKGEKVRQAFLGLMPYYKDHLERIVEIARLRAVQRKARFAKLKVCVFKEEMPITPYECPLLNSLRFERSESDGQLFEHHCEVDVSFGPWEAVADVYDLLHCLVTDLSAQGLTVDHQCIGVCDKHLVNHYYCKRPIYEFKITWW
Kind of assay: co-IP; Flag-tagged KCTD7 constructs transfected in HEK293 cells, endogenous calpain 1, calpain 2 and CAPNS1 detected by immunoblot.

B1: CAPNS1-Flag (protein, UniProt P04632 1-268)
chain: MFLVNSFLKGGGGGGGGGGGLGGGLGNVLGGLISGAGGGGGGGGGGGGGGGGGGGGTAMRILGGVISAISEAAAQYNPEPPPPRTHYSNIEANESEEVRQFRRLFAQLAGDDMEVSATELMNILNKVVTRHPDLKTDGFGIDTCRSMVAVMDSDTTGKLGFEEFKYLWNNIKRWQAIYKQFDTDRSGTICSSELPGAFEAAGFHLNEHLYNMIIRRYSDESGNMDFDNFISCLVRLDAMFRAFKSLDKDGTGQIQVNIQEWLQLTMYS
Take B1: the binding entry with Cullin-3-myc and with KCTD7-GFP (human) was “binds” throughout.

B2: CAPNS1 (regulatory subunit of m-calpain and μ-calpain; endogenous, HEK293) (protein, UniProt P04632 1-268)
chain: MFLVNSFLKGGGGGGGGGGGLGGGLGNVLGGLISGAGGGGGGGGGGGGGGGGGGGGTAMRILGGVISAISEAAAQYNPEPPPPRTHYSNIEANESEEVRQFRRLFAQLAGDDMEVSATELMNILNKVVTRHPDLKTDGFGIDTCRSMVAVMDSDTTGKLGFEEFKYLWNNIKRWQAIYKQFDTDRSGTICSSELPGAFEAAGFHLNEHLYNMIIRRYSDESGNMDFDNFISCLVRLDAMFRAFKSLDKDGTGQIQVNIQEWLQLTMYS
With B2, the binding entry in assay [1] is “binds”.
